Measurements published in PubChem BioAssay AID1688 (National Center for Advancing Translational Sciences (NCATS), 2009).
The whole screen tested about 220,000 compounds, of which about 2,400 (1.1%) were called active. The shares of active, inactive and inconclusive entries below differ from those in the screen. Calls follow the shape of the dose curve; as a rule, active = well fitted inhibition curve with a large enough effect; inconclusive = small, poorly fitted or top-dose-only effect, or effect the other way; inactive = no such curve, though single readings can be large or run the other way. Potencies of inconclusive entries are doubtful fits and often do not repeat.

assay: qHTS Multiplex Assay to Identify Dual Action Probes in a Cell Model of Huntington: Aggregate Formation (GFP); conditions: PC12 HttQ103-GFP aggregates, Acumen cytometry, 40 h; activity change, negative = inhibition: at 46.1 µM (top of the series) unless noted; also: nearly all actives have a fitted effect of over 60% in size
Procedure, shortened: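 Aggregate formation scored by laser-scanning cytometer (488 excitation, 500–530 emission) in lysed PC12 cells expressing Q103-GFP after 100 nM tebufenozide induction; library tested in dose series, with ATPLite reagent added in the multiplex.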
% is scaled to controls: 0 for no effect and ±100 for the full control effect; potency is read from the fitted curve at half-maximal effect.

Row | SMILES | Potency | activity change, negative = inhibition
1 | N#CC(C#N)=Cc1cccn1-c1ccc(C(=O)O)cc1 | inconclusive: 11.2 µM [activator, partial curve, poor fit] | 
2 | CC(C)N=c1scc(-c2cccs2)n1/N=C/c1ccc(O)c(O)c1O | inconclusive: 35.5 µM [inhibitor, single point] | 
3 | CCC(=O)Nc1cccc(NC(=S)NC(=O)c2ccc(Cl)cc2Cl)c1 | inconclusive: 35.5 µM [inhibitor, single point] | 
4 | CS(=O)(=O)N(CC(=O)NCc1ccco1)c1cccc([N+](=O)[O-])c1 |  | inactive: 12.4%
5 | CCOc1ccc(OCc2ccc(C(=O)N(CC)CC)cc2)cc1 |  | inactive: -29%
6 | O=[N+]([O-])c1ccc(C2OCCO2)cc1CS(=O)(=O)c1ccccc1 | inconclusive: 0.1 µM [activator, full curve, poor fit] | 
7 | COc1ccccc1/C=C/C1(C(=O)NC2CCCC2)CC(=O)N1c1ccccc1 (stereo unspecified) | inconclusive: 1.41 µM [inhibitor, partial curve] | 
8 | Cc1[nH]nc(-c2ccc(O)cc2O)c1-c1ccc(Cl)cc1 | inconclusive: 25.1 µM [inhibitor, single point] | 
9 | COC(C[C@H]1O[C@H]1C(=O)COCc1ccccc1)OC |  | inactive: -1.2% [at 9.22 µM]
10 | CCN1C(=O)C(CC(=O)Nc2ccc(OC)cc2)N(Cc2cccnc2)C1=S (stereo unspecified) |  | inactive: -3.91%
11 | CNC(=O)CCN(Cc1ccco1)S(=O)(=O)c1ccc(OC)c(OC)c1 |  | inactive: 3.34% [at 9.22 µM]
12 | Cc1cc(C)nc(NN=C(c2ccccc2)c2ccccc2)n1 | active: 17.8 µM | 
13 | O=C1C(Cl)=C(N2CCC(C(=O)O)CC2)C(=O)c2ccccc21 |  | inactive: 10.1% [at 9.22 µM]
14 | CCCCN1Cc2cc(C(=O)c3cc(F)ccc3O)cnc2NC1=O | inconclusive: 14.1 µM [inhibitor, partial curve] | 
15 | Cc1nc2ccccn2c1C(=O)N=Nc1c(O)n(CCC(C)C)c2ccccc12 | active: 35.5 µM | 
16 | COc1cccc(NC(=O)Nc2ccc(Cc3ccncc3)cc2)c1 | inconclusive: 22.4 µM [inhibitor, single point] | 
17 | CS(=O)(=O)N1N=C(c2ccc(Br)cc2)CC1c1ccc2c(c1)OCO2 (stereo unspecified) | inconclusive: 28.2 µM [inhibitor, single point] | 
18 | O=C(COC(=O)/C=C/c1ccco1)Nc1cccc([N+](=O)[O-])c1 | inconclusive: 5.62 µM [activator, single point] | 
19 | C=CCNc1oc(COc2ccc(C)cc2)nc1C#N |  | inactive: -6.87%
20 | N#C/C(=C\c1ccc(Cl)cc1)c1nc2ccccc2o1 | inconclusive: 10 µM [activator, partial curve] | 
21 | Cc1ccc(C)c(NC(=O)c2ccccc2NS(=O)(=O)c2cc([N+](=O)[O-])ccc2C)c1 | active: 2.82 µM | 
22 | c1ccc(CC2CCN(C3=Nc4cccc5cccc3c45)CC2)cc1 | inconclusive: 35.5 µM [inhibitor, single point] | 
23 | N#C/C(=C\Nc1ccccc1SC(F)(F)F)c1nc(-c2ccccc2)cs1 | inconclusive: 35.5 µM [activator, single point] | 

Row | SMILES | Potency | activity change, negative = inhibition
24 | CCCCC(CC)CNC(=O)CN(C)S(=O)(=O)c1cccc2nsnc12 (stereo unspecified) | inconclusive: 11.2 µM [inhibitor, single point] | 
25 | COc1ccc(S(=O)(=O)N2CCC(c3cc(-c4cccc5ccccc45)n[nH]3)CC2)cc1 | inconclusive: 35.5 µM [inhibitor, single point] | 
26 | O=C(NC(=S)NCCN1CCOCC1)c1ccc(Cl)cc1Cl |  | inactive: 6.98%
27 | O=C(Nc1ccc(OC(F)F)c(Cl)c1)C(c1ccccc1)c1ccccc1 | inconclusive: 35.5 µM [inhibitor, single point] | 
28 | COc1ccc(-n2c(COc3cccc4ccccc34)nnc2SCC(=O)NCc2ccco2)cc1 | inconclusive: 4.47 µM [inhibitor, single point] | 
29 | CCCCCc1nc2c(=O)[nH]c3ccccc3c2o1 |  | inactive: 13.2%
30 | c1ccc(-c2noc(C34CC5CC(CC(C5)C3)C4)n2)cc1 | inconclusive: 0.562 µM [inhibitor, full curve, poor fit] | 
31 | COc1cc2c(cc1OC)C1=C(C#N)CCC(=O)N1CC2 |  | inactive: 0.456%
32 | CC(=O)OCC(=O)Nc1ccc([N+](=O)[O-])cc1Cl |  | inactive: -9.8%
33 | Cc1ccc(/C=C/c2ccc(=O)n(Cc3ccc(F)cc3)n2)cc1 | inconclusive: 11.2 µM [inhibitor, single point] | 
34 | COc1ccc(/C=C2\SC(=S)N(CC(=O)N3CCN(C)CC3)C2=O)cc1 |  | inactive: -17.3% [at 9.22 µM]
35 | COc1cc2c(cc1OC)C(CC#N)=NC(C)(C)C2 | inconclusive: 14.1 µM [activator, single point] | 
36 | CC(=O)c1cn(CC(=O)NCC2CCCO2)c2ccccc12 (stereo unspecified) | inconclusive: 5.01 µM [inhibitor, single point] | 
37 | Clc1ccc(NCn2cncn2)nc1 |  | inactive: 12.4%
38 | O=C(c1ccc(Cl)c(S(=O)(=O)Nc2ccccc2C(=O)N2CCc3ccccc3C2)c1)N1CCc2ccccc2C1 | inconclusive: 22.4 µM [activator, single point] | 
39 | CCn1ncc(C(=O)Nc2ccc(S(=O)(=O)N3CCCC3)cc2)c1C | inconclusive: 15.8 µM [inhibitor, partial curve] | 
40 | CC1=C(C(N)=O)C(c2cccs2)NC(=S)N1 (stereo unspecified) |  | inactive: 26% [at 9.22 µM]
41 | C=CCOc1c(CNc2ccc3[nH]c(=O)[nH]c3c2)cccc1OC |  | inactive: 11.6% [at 9.22 µM]
42 | COc1cc(O)c(C(C)=O)cc1OC | inconclusive: 11.2 µM [inhibitor, single point] | 
43 | CCOc1ccc(C(c2c(O)nc(SC)n(C)c2=O)c2c(O)nc(SC)n(C)c2=O)cc1 |  | inactive: 9.06%
44 | Fc1ccc(OCCCCCCN2CCCC2)cc1 | inconclusive: 28.2 µM [inhibitor, single point] | 
45 | O=C(Nc1nnc(C2CC2)s1)c1cccc(S(=O)(=O)N2CCc3ccccc32)c1 | inconclusive: 5.62 µM [inhibitor, single point] | 
46 | NNC(=O)CCS(=O)(=O)c1ccc2ccccc2c1 | inconclusive: 22.4 µM [inhibitor, single point] | 

Ordered by heavy-atom count (smallest number first): some entries from above
Row | SMILES | Potency | activity change, negative = inhibition
8 | Cc1[nH]nc(-c2ccc(O)cc2O)c1-c1ccc(Cl)cc1 | inconclusive: 25.1 µM [inhibitor, single point] | 
26 | O=C(NC(=S)NCCN1CCOCC1)c1ccc(Cl)cc1Cl |  | inactive: 6.98%
14 | CCCCN1Cc2cc(C(=O)c3cc(F)ccc3O)cnc2NC1=O | inconclusive: 14.1 µM [inhibitor, partial curve] | 
